Reference: PubChem BioAssay AID192 (DTP/NCI, 2004)
The list shows only some results of the screen, not a fair sample: it is rich in T/C values a quarter to a half above the control, in often repeated tests (any T/C) and in doses without a T/C. Other doses and runs of a compound stand elsewhere. T/C gives the treated animals as a percentage of the vehicle group. Some doses have a count of surviving animals in place of a T/C: the source holds a T/C of zero for them, seemingly a mark for toxic or unscored doses. Some survivor counts are full or nearly so, which does not show that the dose was tolerated: the source hardly ever lists a survival T/C far under the control, and the zero likely stands for such cases as well. Counts of survivors are from the toxicity check (mostly the fifth day) where no day follows; animals may have died later. Schedules are NCI's codes, taken here to give the interval after Q, in days (D) or hours (H), and the number of doses after X. Some entries hold several experiments; the results are listed from low to high. For survival time, this PubChem deposit counts one and a half times the control or more as active, and values a quarter to a half above the control carry no call in these data; other NCI protocols may use other cut-offs. Some T/C values are followed by the survivors on the day toxicity was checked, most often the fifth; where none is given, no animal had died by that day.

Tested on: BDF1 mice, B16 melanoma ip, median survival T/C
Experiment: NCI In Vivo Anticancer Drug Screen. Data for tumor model B16 Melanoma (intraperitoneal) in B6D2F1 (BDF1) mice
Conditions: T/C endpoint: median survival time, higher T/C = longer survival
In short: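 Survival or tumor size is measured after treatment of tumor-bearing mice and normalised to the vehicle-treated control group.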

[1] = dose: 50.0 mg/kg/injection, schedule: Q01DX009 (ip), vehicle: saline
[2] = dose: 200.0 mg/kg/injection, schedule: Q01DX009 (ip), vehicle: saline with Tween-80
[3] = dose: 20.0 mg/kg/injection, schedule: Q01DX009 (ip), vehicle: Klucel (hydroxypropylcellulose) (HPC)
[4] = dose: 200.0 mg/kg/injection, schedule: Q01DX009 (ip), vehicle: Klucel (hydroxypropylcellulose) (HPC)
[5] = dose: 400.0 mg/kg/injection, schedule: Q01DX009 (ip), vehicle: Klucel (hydroxypropylcellulose) (HPC)
[6] = dose: 150.0 mg/kg/injection, schedule: Q01DX009 (ip), vehicle: saline with Tween-80
[7] = dose: 300.0 mg/kg/injection, schedule: Q01DX009 (ip), vehicle: saline with Tween-80

Compound: ClCCCN1CCCCC1CCl (stereo not drawn)
- T/C (dose: 5.56 mg/kg/injection, schedule: Q01DX009 (ip), vehicle: water): 129 and 146 % of control
- T/C (dose: 6.25 mg/kg/injection, schedule: Q01DX009 (ip), vehicle: saline): 132 % of control
- T/C (dose: 12.5 mg/kg/injection, schedule: Q04DX003 (ip), vehicle: saline): 140 % of control
- survivor count (dose: 18.8 mg/kg/injection, schedule: Q01DX009 (ip), vehicle: water): 10 of 10
- survivor count (dose: 25.0 mg/kg/injection, schedule: Q01DX009 (ip), vehicle: saline): 10 of 10
- survivor count (dose: 25.0 mg/kg/injection, schedule: Q04DX003 (ip), vehicle: saline): 10 of 10
- survivor count [1]: 0 of 10
- survivor count (dose: 50.0 mg/kg/injection, schedule: Q04DX003 (ip), vehicle: saline): 7 of 10

Compound: CC1(C)N=C(N)N=C(N)N1c1ccc2ccccc2c1
- survivor count (dose: 75.0 mg/kg/injection, schedule: Q01DX009 (ip), vehicle: Klucel (hydroxypropylcellulose) (HPC)): 7 of 10
- survivor count (dose: 100.0 mg/kg/injection, schedule: Q01DX009 (ip), vehicle: saline with Tween-80): 0 of 10

Compound: O=S(=O)(CCBr)CCBr
- survivor count [2]: 0 of 10

Compound: CCCCCn1c(C)cc(/C=C\c2ccc3cc(C)ccc3[n+]2C)c1C
- survivor count (dose: 2.5 mg/kg/injection, schedule: Q01DX009 (ip), vehicle: Klucel (hydroxypropylcellulose) (HPC)): 2 of 10
- survivor count (dose: 5.0 mg/kg/injection, schedule: Q01DX009 (ip), vehicle: Klucel (hydroxypropylcellulose) (HPC)): 0 of 10
- survivor count (dose: 10.0 mg/kg/injection, schedule: Q01DX009 (ip), vehicle: Klucel (hydroxypropylcellulose) (HPC)): 0 of 10
- survivor count [3]: 0 of 10

Compound: CCOC(=O)C(C)(C)Oc1ccc(Cl)cc1
- survivor count [2]: 10 of 10
- survivor count (dose: 400.0 mg/kg/injection, schedule: Q01DX009 (ip), vehicle: saline with Tween-80): 7 of 10 and 10 of 10

Compound: O=C(c1ccccc1Cl)N(Cc1ccccc1)c1ccccc1
- survivor count [4]: 10 of 10
- survivor count [5]: 4 of 10

Compound: CCc1ccc(NC(=O)Nc2ccccc2)cc1
- survivor count (dose: 100.0 mg/kg/injection, schedule: Q01DX009 (ip), vehicle: Klucel (hydroxypropylcellulose) (HPC)): 10 of 10
- survivor count [4]: 10 of 10
- survivor count [5]: 10 of 10

Compound: COc1ccc(-n2c(=S)[nH]c3ccccc3c2=O)cc1
- survivor count [5]: 6 of 10

Compound: Nc1nc(=S)c2ncn(C3OC(CO)C(O)C3O)c2[nH]1 (stereo not drawn)
- survivor count (dose: 4.0 mg/kg/injection, schedule: Q01DX009 (ip), vehicle: saline sonified): 6 of 6
- T/C (dose: 4.0 mg/kg/injection, schedule: Q01DX009 (ip), vehicle: saline with Tween-80): 129 % of control
- survivor count (dose: 8.0 mg/kg/injection, schedule: Q01DX009 (ip), vehicle: saline sonified): 6 of 6
- survivor count (dose: 8.0 mg/kg/injection, schedule: Q01DX009 (ip), vehicle: saline with Tween-80): 6 of 6

Compound: CCCC[P+](CCCC)(CCCC)C(C)C
- survivor count (dose: 50.0 mg/kg/injection, schedule: Q01DX009 (ip), vehicle: saline with Tween-80): 4 of 10

Compound: CN(C)CCCN1c2ccccc2Sc2c(Cl)cc(Cl)cc21
- survivor count [1]: 6 of 10

Compound: CN1CCCN(C(c2ccccc2)c2ccc(Br)cc2)CC1 (stereo not drawn)
- survivor count (dose: 100.0 mg/kg/injection, schedule: Q01DX009 (ip), vehicle: saline): 8 of 10
- survivor count (dose: 200.0 mg/kg/injection, schedule: Q01DX009 (ip), vehicle: saline): 0 of 10
- survivor count (dose: 400.0 mg/kg/injection, schedule: Q01DX009 (ip), vehicle: saline): 0 of 10

Compound: O=C(NN=C1CCCCC1)c1ccccc1
- survivor count [6]: 2 of 6
- survivor count [7]: 0 of 6

Compound: CC(C)=CCC(O)C1=CC(=O)c2c(O)ccc(O)c2C1=O (stereo not drawn)
- survivor count [3]: 10 of 10

Compound: CC(C)CCCCCCCCCCCCC(=O)NCC(=O)NC1C(O)C(O)C(Nc2ncnc3nc[nH]c23)OC1C(O)CO (stereo not drawn)
- T/C (dose: 0.25 mg/kg/injection, schedule: Q01DX009 (ip), vehicle: saline): 131 % of control
- T/C (dose: 0.5 mg/kg/injection, schedule: Q01DX009 (ip), vehicle: Klucel (hydroxypropylcellulose) (HPC)): 140 % of control
- T/C (dose: 0.5 mg/kg/injection, schedule: Q01DX009 (ip), vehicle: saline): 138 and 142 % of control
- T/C (dose: 0.75 mg/kg/injection, schedule: Q01DX009 (ip), vehicle: saline): 148 % of control
- T/C (dose: 1.0 mg/kg/injection, schedule: Q01DX009 (ip), vehicle: Klucel (hydroxypropylcellulose) (HPC)): 141 % of control
- T/C (dose: 1.0 mg/kg/injection, schedule: Q01DX009 (ip), vehicle: saline): 149 % of control
- survivor count (dose: 1.5 mg/kg/injection, schedule: Q01DX009 (ip), vehicle: saline): 10 of 10
- survivor count (dose: 2.0 mg/kg/injection, schedule: Q01DX009 (ip), vehicle: Klucel (hydroxypropylcellulose) (HPC)): 10 of 10
- survivor count (dose: 2.0 mg/kg/injection, schedule: Q01DX009 (ip), vehicle: saline): 10 of 10
- survivor count (dose: 4.0 mg/kg/injection, schedule: Q01DX009 (ip), vehicle: Klucel (hydroxypropylcellulose) (HPC)): 10 of 10
- survivor count (dose: 4.0 mg/kg/injection, schedule: Q01DX009 (ip), vehicle: saline): 10 of 10
- survivor count (dose: 8.0 mg/kg/injection, schedule: Q01DX009 (ip), vehicle: Klucel (hydroxypropylcellulose) (HPC)): 10 of 10
- survivor count (dose: 8.0 mg/kg/injection, schedule: Q01DX009 (ip), vehicle: saline): 8 of 10
- survivor count (dose: 1000.0 micrograms/kg/injection, schedule: Q01DX009 (ip), vehicle: saline): 10 of 10
- survivor count (dose: 2000.0 micrograms/kg/injection, schedule: Q01DX009 (ip), vehicle: saline): 10 of 10

Compound: CC1CCC(=C(c2ccccc2)c2ccccc2)C(C)N1C (stereo not drawn)
- survivor count (dose: 100.0 mg/kg/injection, schedule: Q04DX003 (ip), vehicle: saline with Tween-80): 6 of 10

Compound: O=[n+]1ccn2cc3ccccc3cc2c1
- survivor count (dose: 15.0 mg/kg/injection, schedule: Q01DX009 (ip), vehicle: saline): 9 of 10
- survivor count (dose: 30.0 mg/kg/injection, schedule: Q01DX009 (ip), vehicle: saline): 9 of 10

Compound: ClC1=C(Cl)C2(Cl)C(COc3ccc(Cl)cc3)CC1(Cl)C2(Cl)Cl (stereo not drawn)
- survivor count (dose: 75.0 mg/kg/injection, schedule: Q01DX009 (ip), vehicle: saline with Tween-80): 9 of 10
- survivor count [6]: 10 of 10
- survivor count [7]: 0 of 10

Compound: O=NNc1ccc(Cl)cn1
- T/C (dose: 6.0 mg/kg/injection, schedule: Q01DX009 (ip), vehicle: water): 132 % of control
- T/C (dose: 12.0 mg/kg/injection, schedule: Q01DX009 (ip), vehicle: water): 148 % of control [9 of 10 alive]

Compound: CC/C(C)=C1\OC(=O)C(C)C(O)C(Cc2cccnc2)NC(=O)C(NC(=O)c2ncccc2O)C(C)OC1=O (stereo not drawn)
- T/C (dose: 3.13 mg/kg/injection, schedule: Q01DX009 (ip), vehicle: saline with Tween-80): 149 % of control

Compound: CC1(C)N=C(N)N=C(N)N1c1cccc(C#N)c1
- survivor count (dose: 150.0 mg/kg/injection, schedule: Q01DX009 (ip), vehicle: saline): 0 of 10
- survivor count (dose: 200.0 mg/kg/injection, schedule: Q04DX003 (ip), vehicle: saline): 2 of 10
- survivor count (dose: 225.0 mg/kg/injection, schedule: Q01DX009 (ip), vehicle: saline): 0 of 10
- survivor count (dose: 335.0 mg/kg/injection, schedule: Q01DX009 (ip), vehicle: saline): 0 of 10
